Numbering of substitutions follows the chain as printed. No constants are given. Whether binding was seen depends on the method and setting. Some binding calls cover weakened binding; strength is not graded here.
Assays:
[1] = biological target: cytoplasmic domain-lacking human NR10 on CHO cells (human) (UniProt Q8NI17); assay: FMAT competition on hNR10-expressing CHO cells; competitor: FMAT Blue-NS22 at 8.8x10^-2 µg/ml
[2] = biological target: cytoplasmic domain-lacking human NR10 on CHO cells (human) (UniProt Q8NI17); assay: FMAT competition: FMAT Blue-NS22 on hNR10-expressing CHO cells, unlabeled antibody titrated
rhNR10 (human) = biological target: T1, rhNR10 (human) (UniProt Q8NI17); assay: SPR (Biacore T100): antibody captured on Protein A, rhNR10 as analyte
T1 sequence: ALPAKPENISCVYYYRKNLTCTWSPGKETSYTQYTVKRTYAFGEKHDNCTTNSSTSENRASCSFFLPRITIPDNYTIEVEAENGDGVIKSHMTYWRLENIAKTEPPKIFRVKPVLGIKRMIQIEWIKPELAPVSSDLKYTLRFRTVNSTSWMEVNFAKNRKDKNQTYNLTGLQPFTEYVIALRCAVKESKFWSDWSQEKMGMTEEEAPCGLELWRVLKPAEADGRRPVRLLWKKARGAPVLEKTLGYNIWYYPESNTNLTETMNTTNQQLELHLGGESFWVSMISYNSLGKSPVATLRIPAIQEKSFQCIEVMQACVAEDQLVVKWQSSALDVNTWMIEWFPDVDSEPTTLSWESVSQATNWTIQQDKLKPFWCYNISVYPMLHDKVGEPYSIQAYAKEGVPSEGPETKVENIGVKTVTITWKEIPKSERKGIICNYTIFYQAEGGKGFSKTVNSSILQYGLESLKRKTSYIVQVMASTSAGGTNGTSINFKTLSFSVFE

B1: chimeric NS23 (γ1, κ) (antibody, V domains shown)
VH: EVQLQQSGPELVKPGTSMKISCKASGYSFTGYIMNWVKQSHGKNLEWIGLINPYNGGAEYNQKFKDKATFTVDKSSSTAYMELLSLTSEDSAVYYCARDGYDDGPYTMDYWGQGTSVTVSS
VL: DIQMTQSPASLSASVGETVTFTCRANENIYSYLAWYQQKQGKSPQLLVYNAKTLAEGVPSRFSGSGSGTQFSLKINSLQPEDFGSYYCQHHYGTPPTFGGGTKLEIK
binding [1]: binds | binding [2]: binds

B2: H0La130 (H chain, H0-SKSC; L chain, La130) (antibody, V domains shown)
VH: QVQLVQSGAEVKKPGASVKVSCKASGYTFTGYIMNWVRQAPGQGLEWMGLINPYNGGTSYNQKFKGRVTITADESTSTAYMELSSLRSEDTAVYYCARDGYDDGPYTMDYWGQGTLVTVSS
VL: DIQMTQSPSSLSASVGDRVTITCRTSENIYRFVAWYQQKPGKAPKLLIYNAKTLAKGVPSRFSGSGSGTDFTLTISSLQPEDFATYYCQHHYESPLTFGGGTKVEIKR
binding (rhNR10 (human)): binds

B3: H0La303 (H chain, H0-SKSC; L chain, La303) (antibody, V domains shown)
VH: B2 VH
VL: B2 VL with R31S, V33L, E93D
binding (rhNR10 (human)): binds

B4: H0La328 (H chain, H0-SKSC; L chain, La328) (antibody, V domains shown)
VH: B2 VH
VL: B2 VL with R31S, V33L, S94D
binding (rhNR10 (human)): binds

B5: H0La326 (antibody, V domains shown)
VH: B2 VH
VL: B2 VL with R31S, V33L, T97F
binding (rhNR10 (human)): binds

B6: Ha401La402 (H chain, Ha401-SKSC; L chain, La402) (antibody, V domains shown)
VH: B2 VH with I33V, M34I, S59D
VL: B2 VL with R24Q, E93D
binding (rhNR10 (human)): binds

B7: H17L11 (H chain, H17-M58; L chain, L11) (antibody, V domains shown)
VH: B2 VH with I33V, M34L, S59D, Q62P, K63Q, K65Q, G66D
VL: B2 VL with R24Q, N28D, K52Q, L54E, K56Q, E93D
binding (rhNR10 (human)): binds

B8: H19L12 (H chain, H19-M58; L chain, L12) (antibody, V domains shown)
VH: B2 VH with I33A, S59D, Q62P, K63Q, K65Q, G66D
VL: B2 VL with R24Q, N28D, R31S, K52Q, L54E, K56Q, E93D
binding (rhNR10 (human)): binds
